Construct, isoform or probe ends are uncertain for at least one entry. At least one verdict rests on a figure or table, not on a statement of the authors. Where a protein sequence is shown, tags need not be part of it.

The target of the data set is T1, TCF/Pangolin HMG + C-clamp fragment (UniProt P91943).
T1 sequence (looked up, limits assumed): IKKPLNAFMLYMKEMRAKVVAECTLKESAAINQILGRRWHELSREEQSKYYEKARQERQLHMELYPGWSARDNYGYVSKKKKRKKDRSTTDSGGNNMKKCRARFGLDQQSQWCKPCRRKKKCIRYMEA
Briefly: EMSA. The following applies: 10 mM Tris-HCl pH 7.5, 50 mM KCl, 1 mM DTT, 0.05% NP40, 3.5% glycerol, 50 ug/ml poly(dIdC); 6 pmol protein, 0-2.4 pmol competitor; recombinant protein; protein details: His (pET52b(+), XmaI/SacI); label: 5' IRD700 on both strands. In general terms: In EMSA bound probe runs differently from free probe, usually more slowly.

With “TACGATAAGATCAAAGGTGCAGTGCCGCCAGTCGTA / TACGACTGGCGGCACTGCACCTTTGATCTTATCGAC [IR-AK6 labeled probe]”, the binding result is given as “binds”.
